Here are results for two sequences from patent US20250339503A1, “PEPTIDES AND COMBINATIONS OF PEPTIDES FOR USE IN IMMUNOTHERAPY AGAINST ACUTE MYELOID LEUKEMIA (AML) AND OTHER HEMATOLOGICAL NEOPLASMS” (Eberhard Karls Universität Tübingen Medizinische Fakultät, priority 2022, published 2025).

In the data set the test system is HLA class I and HLA class II immunopeptidomes of primary AML samples. The data set can be described thus: Mass spectrometry-based immunopeptidome analysis, comparative profiling. Set-up: species or system human. Particulars: cryptic HLA class I peptides, AML immunopeptidomes of matching allotype.

“GPDDGRGVL [P2_cryB*02, cryptic HLA-B*07 peptide, off-frame from TSPAN2]” came in with an allotype-specific presentation frequency of 42%.
For “ILLSPPLLTI [P1_cryA*02, cryptic HLA-A*02 peptide from the UTR5 region of CHRFAM7A]”, the allotype-specific presentation frequency is on record as 26%.
